Reference: PMC12405480, “Endogenous ligands of bovine FFAR2/GPR43 display distinct pharmacological properties” (Frontiers in Cell and Developmental Biology, 2025)
These are yes or no findings as the source states them, for the method shown. Binding seen in cells or lysates may run through a third protein. Some binding calls cover weakened binding; strength is not graded here.

Amino acid sequences for entries named in this document (tags omitted).
UniProt P32121: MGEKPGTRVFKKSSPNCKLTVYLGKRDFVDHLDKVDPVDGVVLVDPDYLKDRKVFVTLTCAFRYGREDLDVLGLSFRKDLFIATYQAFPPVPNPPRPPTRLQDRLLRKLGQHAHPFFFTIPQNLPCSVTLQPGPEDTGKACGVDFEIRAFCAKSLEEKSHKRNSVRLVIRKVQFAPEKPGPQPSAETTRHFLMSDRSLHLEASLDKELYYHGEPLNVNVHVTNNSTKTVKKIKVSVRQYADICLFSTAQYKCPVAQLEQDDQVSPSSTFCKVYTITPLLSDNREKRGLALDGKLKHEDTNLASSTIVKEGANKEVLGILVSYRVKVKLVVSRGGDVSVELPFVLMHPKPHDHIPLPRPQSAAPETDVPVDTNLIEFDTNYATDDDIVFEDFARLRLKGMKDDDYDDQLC

How the values were obtained:
[1] = biological target: Bos taurus FFAR2/GPR43 with an N-terminal FLAG epitope and C-terminal Renilla reniformis luciferase (bFFAR2-Rluc8) (Bos taurus); assay: FRET or BRET; BRET in living HEK293A cells as a1, cells stimulated with increasing doses of 2-methyl-propanoic acid (2MP), 10 min
[2] = biological target: Bos taurus FFAR2/GPR43 with an N-terminal FLAG epitope and C-terminal Renilla reniformis luciferase (bFFAR2-Rluc8) (Bos taurus); assay: FRET or BRET; BRET in living HEK293A cells; bFFAR2-Rluc8 donor, Venus-mG or yPET-β-arrestin 2 acceptor; cells stimulated with FFAs (C2:0 at 0.1 M, C8:0 at 1 mM, other FFAs at 3.16 mM, or increasing doses); signals recorded 10 min, coelenterazine H 5 µM, AUC of net BRET over solvent control

binding [1]: binds weakly
binding [2]: binds
Substance: β-arrestin 2 N-terminally fused with acceptor yPET (YPET-β-arrestin 2) (from UniProt P32121 1-409)
